Laboratory results taken from patent publication US20190015335A1, “HEPATOPROTECTIVE PARTICLES AND SYSTEMS AND METHODS OF USE THEREOF” (South Dakota Board of Regents, priority 2017, published 2019).
For at least one compound, name, drawing or mass did not settle the structure.

What was measured:
[1] = tested on: GSTP1 and GSTA3 in AML12 hepatocytes; assay: Western blot of phase 2 enzymes in AML12 hepatocytes after SBN; format: cell-based, mouse; settings: 100 μM SBN, 24 h and 48 h
[2] = tested on: GSTP1, GSTA3 and NQO1 in liver tissues; assay: Western blot of phase 2 enzymes in liver lysates after SBN or PLGA-SBN; format: in vivo; settings: B16-F1 melanoma bearing C57BL/6J mice, 10 mg SBN per kg, 24 h, FIG. 14
[3] = tested on: caspase 3 in liver tissues; assay: Western blot of pro-caspase 3 and active caspase 3 in liver tissues (DTIC); format: in vivo, mice; settings: 10 mg SBN per kg, DTIC 120 mg per kg next day, 4 cycles, FIG. 18
Protocol: Mice bearing B16F1 tumor were intravenously administered through the tail vein in different groups of eight: (1) pretreatment with PLGA-SBN (corresponding to 10 mg SBN per kg of mouse), followed by dacarbazine (DTIC) on the next day at a dose of 120 mg per kg mouse; (2) pretreatment with SBN (10 mg per kg), followed by DTIC on the next day at a dose of 120 mg per kg mouse; (3) PBS, followed by DTIC on the next day at a dose of 120 mg per kg mouse; (4) pretreatment with plain PLGA and free (non-encapsulated) SBN (10 mg per kg of mouse), followed by PBS on the next day; and (5) PBS injected at both days (once per day). Liver and blood samples were collected and analyzed to identify liver damage and morphology.

B16F1 tumor = assay: Tumor volume in mice bearing B16F1 tumor, DTIC with or without pretreatment; format: in vivo; settings: 10 mg SBN per kg, DTIC 120 mg per kg next day, 4 cycles, FIG. 15

COc1cc(C2Oc3cc([C@H]4Oc5cc(O)cc(O)c5C(=O)[C@@H]4O)ccc3OC2CO)ccc1O (stereo partly shown) [SBN, silibinin]
expression of GSTA3 [1]: but not GSTA3
expression of GSTP1 [1]: enhanced expression
GSTA3 in the liver tissues [2]: but not GSTA3
GSTP1 in the liver tissues [2]: pronounced upregulation
NQO in the liver tissues [2]: pronounced upregulation
DTIC-induced caspase 3 activation in liver after pretreatment [3]: attenuated the activation of caspase 3
effect of pretreatment on anti-cancer efficacy of DTIC (tumor volume) (B16F1 tumor): did not affect the anti-cancer efficacy of DTIC
